At least one compound was matched to its structure with a doubt left.
System: Sprague Dawley rats
Test: TNBS induced distal colitis in rats
Format: in vivo
Conditions: day 14, controls 5/9 (56%) for 7-oxodehydroepiandrosterone, vehicle 5/10 (50%) for sulfazalazine
Procedure: In another protocol formula 1 compounds were used in a similar animal model. Groups of 10 male Sprague Dawley rats (250-300 grams) were fasted for 24 hours before 2,4,6-trinitrobenzene sulfonic acid (TNBS) or saline challenge. This model presents a severe challenge to the animal's immune system. On Day 0, the rats were lightly anesthetized and a catheter inserted rectally into the colon such that the tip was 8 cm proximal to the anus. Distal colitis was induced by intra-colonic instillation of 0.5 mL of an ethanolic solution of TNBS (60 mg/mL ethanol 50% in water). […] Signs of diarrhea were recorded daily by examining the anal area. […] Before removal of the colon, signs of adhesion between the colon and other organs were recorded. […] Body weight, colon-to-body-weight ratio, and damage scores were assessed. Visible damage was scored on a 1-5 scale as follows: 0=No damage; 1=Localized hyperemia but no ulcers; 2=linear ulcers with no significant inflammation; 3=Linear ulcers with inflammation at one site; 4=Two or more sites of ulceration and/or inflammation; 5=Two or more major sites of ulceration and inflammation or one major site of ulceration and inflammation extending more than 1 cm along the length of the colon. […]

In the case of `C[C@]12CC[C@H](O)CC1=CC(=O)[C@@H]1[C@@H]2CC[C@]2(C)C(=O)CC[C@@H]12` [7-oxodehydroepiandrosterone], the “animals with moderate to severe ulcerative lesions” value is reported as 8/9 (89%).

Reference: patent US20070275936A1, “Formulations and Treatment Methods” (priority 1998, published 2007)
